Reference: the supplement of paper PMC10735217
This is one part of the list. Repeats in this data set agree poorly, so a single value says little.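 Human kidney-derived cells stably carry a construct in which eight TEAD-binding elements drive luciferase, measured by luminescence in a drug-repurposing library screen. A hit is any compound whose signal exceeds the plate mean by more than five robust Z scores.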

Test system: HEK293A TEAD-LUC reporter
Experiment: TEAD-luciferase reporter activity (YAP activation), robust Z score vs plate; higher = stronger YAP/TEAD activation
Details: 24 h

Structure (SMILES)	TEAD-luciferase reporter activity (compound concentration: 200 nM)	TEAD-luciferase reporter activity (compound concentration: 2 uM)	TEAD-luciferase reporter activity (compound concentration: 10 uM)
O=C(O)Cc1ccc(CCNS(=O)(=O)c2ccc(Cl)cc2)cc1 [Daltroban]	inactive: 0.856	inactive: -0.894	inactive: 0.476
OC1C(O)C(O)C(O)C(O)C1O (stereo not drawn) [Inositol]	inactive: -0.785	inactive: 0.357	inactive: -0.0874
CC(C)CC(=O)Nc1cc(-c2ccc(C(N)=O)cc2C(=O)O)cc(C2CC(C)(c3ccccc3)c3cc(C(=N)N)ccc3N2)c1 (stereo not drawn)	inactive: -1.58	inactive: -0.237	inactive: -0.845
C[C@@H]1CC[C@@]2(NC1)O[C@H]1C[C@H]3[C@@H]4CC=C5C[C@@H](O[C@@H]6O[C@H](CO)[C@@H](O[C@@H]7O[C@@H](C)[C@H](O)[C@@H](O)[C@H]7O)[C@H](O)[C@H]6O[C@@H]6O[C@@H](C)[C@H](O)[C@@H](O)[C@H]6O)CC[C@]5(C)[C@H]4CC[C@]3(C)[C@H]1[C@@H]2C [Solamargine]	inactive: -0.807	inactive: -0.391	inactive: 0.0535
O=C(NCCN1CCOCC1)Nc1nc2ccc(Sc3nnc4ccc(-c5ccc(F)cc5)nn34)cc2s1	inactive: 0.565	inactive: -0.415	inactive: -1.46
CN/C(=C\[N+](=O)[O-])NCCSCc1csc(CN(C)C)n1	inactive: -1.06		inactive: 0.0833
CN/C(=C\[N+](=O)[O-])NCCSCc1csc(CN(C)C)n1 [nizatidine]		inactive: 0.546	
CC(C)C(=O)OC[C@H]1O[C@H](O[C@H]2O[C@H](COC(=O)C(C)C)[C@@H](O)[C@H](O)[C@H]2O)[C@H](O)[C@@H](O)[C@@H]1O	inactive: -0.178	inactive: 0.137	inactive: -0.465
CCC(=O)c1ccc(F)c([C@@H]2C[C@@H]2NC(=O)Nc2ccc(C#N)cn2)c1O	inactive: -1.3	inactive: -0.998	inactive: 0.971
NCCCCCN	inactive: -0.621	inactive: -1.8	inactive: -0.806
[N-]=[N+]=N[C@@H]1C[C@@H](CO)O[C@H]1n1ccc(=O)[nH]c1=O	inactive: -1.3	inactive: -0.0987	inactive: 0.366
C[C@@H](O)CNC(C)(C)CC(=O)N[C@@H]1CCc2ccccc2N(Cc2ccc(-c3ccccc3-c3nn[nH]n3)cc2)C1=O	inactive: -1.02	inactive: 0.366	inactive: -1.25
CN1CCCCC12Cc1ccccc1CN(C(=O)c1ccccc1)C2 (stereo not drawn)	inactive: -0.283		active: 5.08
Cc1ccc(CN2CCC3(CC2)NC(=O)c2ccccc2O3)cc1	inactive: -2.58		inactive: 1.54
O=C(Nc1cccc(C2=NCCN2)c1)Nc1cccc(C2=NCCN2)c1	inactive: -0.542	inactive: -1.18	inactive: -2.75
COc1cc(C(=O)N(C(C)C)C(C)C)ccc1OCCCCCOc1ccc(C(=N)N)cc1	inactive: -2.22	inactive: -1.01	inactive: -1.44
CCOC(=O)[C@H](CCc1ccccc1)N[C@@H](C)C(=O)N1N=C(C(C)(C)C)S[C@H]1C(=O)O	inactive: -0.365	inactive: -1.64	inactive: 0.258
CC(C)(O)c1cccn2c(C3(c4ccc(Cl)cc4)CC3)nnc12	inactive: -0.69	inactive: -1.63	inactive: -1.83
CC(=O)N[C@H]1CC(=O)N(c2ccc(OCc3cccc(F)c3)cc2)C1 [Sembragiline]	inactive: 1.12	inactive: 0.841	inactive: 0.781
CC(CN1CCN(CCOCCO)CC1)CN1c2ccccc2Sc2ccccc21 (stereo not drawn)	inactive: -1.66	inactive: 0.668	inactive: -0.464
CCCCCCCCO [1-Octanol]	inactive: 0.8	inactive: -0.358	inactive: -0.97
Clc1ccc(-c2cccc(N3CCNCC3)n2)cc1Cl	inactive: 0.757	inactive: -1.01	inactive: -0.3
CC(=O)NC[C@H]1CN(c2ccc(S(C)=O)cc2)C(=O)O1 (stereo partly drawn)	inactive: -0.362	inactive: 1.43	inactive: -0.485
CCC1C(=O)NC(=O)C1(C)c1ccccc1 (stereo not drawn)	inactive: -0.106	inactive: -0.115	inactive: 0.377
NS(=O)(=O)OCCCCCCCOS(N)(=O)=O	inactive: -1.12	inactive: 0.279	inactive: -0.997
COc1cc(C(=O)OCc2cccc(COC(=O)c3cc(OC)c(OC)c(OC)c3)n2)cc(OC)c1OC [pirozadil]	inactive: 2.06	inactive: 0.0152	inactive: 0.188

An excerpt of these results, in CSV form.
Structure (SMILES),TEAD-luciferase reporter activity (compound concentration: 200 nM),TEAD-luciferase reporter activity (compound concentration: 2 uM),TEAD-luciferase reporter activity (compound concentration: 10 uM)
CC(C)C(=O)OC[C@H]1O[C@H](O[C@H]2O[C@H](COC(=O)C(C)C)[C@@H](O)[C@H](O)[C@H]2O)[C@H](O)[C@@H](O)[C@@H]1O,inactive: -0.178,inactive: 0.137,inactive: -0.465
CCC(=O)c1ccc(F)c([C@@H]2C[C@@H]2NC(=O)Nc2ccc(C#N)cn2)c1O,inactive: -1.3,inactive: -0.998,inactive: 0.971
